No constants are given. Whether binding was seen depends on the method and setting. In cells and extracts the contact can be indirect. Here binding means that the protein was enriched with, or labelled near, the bait; the list need not be complete. Sequences can lack the tags named with a protein.

The results in this text go back to PMC6921979.

This experiment addresses Complement factor C3a/C3 (human (endogenous in serum)). The experiment in a line: affinity purification with mass spectrometry; precleared human serum recirculated at 4 °C over 3F7E2-mAb coupled to cyanogen bromide Sepharose; washes with Triton X-100, sodium deoxycholate and 0.5 M NaCl at pH 8.0 and 9.0; elution with 50 mM TEA pH 11.3; reducing SDS-PAGE, whole lane to nanoLC-MS; haptoglobin column (3A8-mAb) as control; hits: >10-fold enriched, p < 0.05, three technical replicates.

B1: Serpin A12 (protein, UniProt Q8IW75 21-414)
chain: LKPSFSPRNYKALSEVQGWKQRMAAKELARQNMDLGFKLLKKLAFYNPGRNIFLSPLSISTAFSMLCLGAQDSTLDEIKQGFNFRKMPEKDLHEGFHYIIHELTQKTQDLKLSIGNTLFIDQRLQPQRKFLEDAKNFYSAETILTNFQNLEMAQKQINDFISQKTHGKINNLIENIDPGTVMLLANYIFFRARWKHEFDPNVTKEEDFFLEKNSSVKVPMMFRSGIYQVGYDDKLSCTILEIPYQKNITAIFILPDEGKLKHLEKGLQVDTFSRWKTLLSRRVVDVSVPRLHMTGTFDLKKTLSYIGVSKIFEEHGDLTKIAPHRSLKVGEAVHKAELKMDERGTEGAAGTGAQTLPMETPLVVKIDKPYLLLIYSEKIPSVLFLGKIVNPIGK
Regarding B1, the binding result is “binds”.

B2: Inter-alpha-trypsin inhibitor heavy chain H1 (protein, UniProt P19827 35-672)
chain: SKSSEKRQAVDTAVDGVFIRSLKVNCKVTSRFAHYVVTSQVVNTANEAREVAFDLEIPKTAFISDFAVTADGNAFIGDIKDKVTAWKQYRKAAISGENAGLVRASGRTMEQFTIHLTVNPQSKVTFQLTYEEVLKRNHMQYEIVIKVKPKQLVHHFEIDVDIFEPQGISKLDAQASFLPKELAAQTIKKSFSGKKGHVLFRPTVSQQQSCPTCSTSLLNGHFKVTYDVSRDKICDLLVANNHFAHFFAPQNLTNMNKNVVFVIDISGSMRGQKVKQTKEALLKILGDMQPGDYFDLVLFGTRVQSWKGSLVQASEANLQAAQDFVRGFSLDEATNLNGGLLRGIEILNQVQESLPELSNHASILIMLTDGDPTEGVTDRSQILKNVRNAIRGRFPLYNLGFGHNVDFNFLEVMSMENNGRAQRIYEDHDATQQLQGFYSQVAKPLLVDVDLQYPQDAVLALTQNHHKQYYEGSEIVVAGRIADNKQSSFKADVQAHGEGQEFSITCLVDEEEMKKLLRERGHMLENHVERLWAYLTIQELLAKRMKVDREERANLSSQALQMSLDYGFVTPLTSMSIRGMADQDGLKPTIDKPSEDSPPLEMLGPRRTFVLSALQPSPTHSSSNTQRLPDRVTGVDTD
Take B2: the binding entry is “binds”.

B3: Histidine-rich glycoprotein (protein, UniProt P04196 19-525)
chain: VSPTDCSAVEPEAEKALDLINKRRRDGYLFQLLRIADAHLDRVENTTVYYLVLDVQESDCSVLSRKYWNDCEPPDSRRPSEIVIGQCKVIATRHSHESQDLRVIDFNCTTSSVSSALANTKDSPVLIDFFEDTERYRKQANKALEKYKEENDDFASFRVDRIERVARVRGGEGTGYFVDFSVRNCPRHHFPRHPNVFGFCRADLFYDVEALDLESPKNLVINCEVFDPQEHENINGVPPHLGHPFHWGGHERSSTTKPPFKPHGSRDHHHPHKPHEHGPPPPPDERDHSHGPPLPQGPPPLLPMSCSSCQHATFGTNGAQRHSHNNNSSDLHPHKHHSHEQHPHGHHPHAHHPHEHDTHRQHPHGHHPHGHHPHGHHPHGHHPHGHHPHCHDFQDYGPCDPPPHNQGHCCHGHGPPPGHLRRRGPGKGPRPFHCRQIGSVYRLPPLRKGEVLPLPEANFPSFPLPHHKHPLKPDNQPFPQSVSESCPGKFKSGFPQVSMFFTHTFPK
In the case of B3, the binding entry is recorded as “binds”.
